Some of the results follow.
molecular target: OsWRKY34 (Oryza sativa, UniProt Q0JBA9 1-250); experiment: protein-binding microarray (RPBM); PBS, 2% BSA, 51.3 ng/ul salmon testes DNA, 50 uM zinc acetate, 200 nM TF, 25 C, 1 h; high values mean tight binding; conditions: protein: recombinant; tags: N-terminal polyhistidine and DsRed monomer fusion (pET32a); label: CyDye5-dUTP incorporated in the synthesized complementary strand; 3' TTTTT single-stranded linker to array surface; dsDNA, one strand shown
Summary of the method: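 A custom Agilent array was converted to double-stranded form by primer extension with Cy5-dUTP and blocked with 2% BSA. Protein at 200 nM in PBS with 2% BSA, salmon testes DNA and 50 µM zinc acetate was applied for 1 h at 25 °C, followed by washing. The proteins were polyhistidine–DsRed N-terminal fusions of transcription factors, expressed in E. coli BL21-CodonPlus and Ni–NTA-purified. The binding signal is per-feature fluorescence intensity (arbitrary units) from an Axon 4000B scanner.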

Chains of the proteins cited; added tags and fusions are not shown.
UniProt Q0JBA9, entry or part of it: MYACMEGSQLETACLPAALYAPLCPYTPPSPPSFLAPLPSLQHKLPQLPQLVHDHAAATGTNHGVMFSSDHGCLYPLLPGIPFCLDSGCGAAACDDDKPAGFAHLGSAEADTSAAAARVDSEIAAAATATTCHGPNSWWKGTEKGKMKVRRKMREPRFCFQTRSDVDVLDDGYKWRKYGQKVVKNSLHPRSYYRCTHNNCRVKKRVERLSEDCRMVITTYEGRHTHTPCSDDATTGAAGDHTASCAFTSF

Row | Sequence | binding signal
1 | TCCTACGCCACCATTTCTTGCAATCTTGCAGCTTTTCATCCGGAGTCACCTAGTGCAG | 12800 fluorescence intensity (a.u.)
2 | AATGTTTGACGCCGTTGACTTTTTTAAAAATGTTTGGCCGCGGAGTCACCTAGTGCAG | 29800 fluorescence intensity (a.u.)
3 | CCATCTGAAGCCGTGCGCCCGTGCCAACGTGCCTGCCTACCGGAGTCACCTAGTGCAG | 8480 fluorescence intensity (a.u.)
4 | TTCCGCCGCCGCCGATTCCGTCTCAGCCGTCGATTCCGCCCGGAGTCACCTAGTGCAG | 9630 fluorescence intensity (a.u.)
5 | TGTGGTTGACTGGCGCGTGGGTAGGTGGGGCCCAGGTGTCCGGAGTCACCTAGTGCAG | 10100 fluorescence intensity (a.u.)
6 | TGATGAGTTGGGCCCTCGTTTTGTGGATTGGTGGGGAACACGGAGTCACCTAGTGCAG | 8670 fluorescence intensity (a.u.)
7 | TCTTGGCTGGTTGGTCTTGGTCTTGTGGTGCCTTTTTCCTCGGAGTCACCTAGTGCAG | 14400 fluorescence intensity (a.u.)
8 | GATTAACCAGTTAGTACTATTGGTCGACCGTTAATTAATACGGAGTCACCTAGTGCAG | 8370 fluorescence intensity (a.u.)
9 | ATCCTGATCAGATTCTGAACTCCTTTTCTCTCTGCGCCCACGGAGTCACCTAGTGCAG | 8480 fluorescence intensity (a.u.)
10 | TCTTATCCATTCGCGCCGTGTATTACTAAGTGATTGTTTACGGAGTCACCTAGTGCAG | 8380 fluorescence intensity (a.u.)
11 | CTACATTCATCTTCTCCATTTCTCTTTTGTTTATTTGTTTCGGAGTCACCTAGTGCAG | 9170 fluorescence intensity (a.u.)
12 | GTGGGTGGTTGGTGGTGGTGGTGGTGGTGGTGATCTTTGGCGGAGTCACCTAGTGCAG | 23900 fluorescence intensity (a.u.)
13 | TGTTTTCATGTTCCCTTCTATGTTCAATTTGATTCTTTTTCGGAGTCACCTAGTGCAG | 9000 fluorescence intensity (a.u.)
14 | TCCTCCTCGCCTCGCGCTCCTCGTCCCTTCTCTCGTCCCACGGAGTCACCTAGTGCAG | 9460 fluorescence intensity (a.u.)
15 | GTTGTATGTCCAGATTCATAATATTATAAAATATCTTATTCGGAGTCACCTAGTGCAG | 9710 fluorescence intensity (a.u.)
16 | TCGGTTGGTTGGGAATTTCCATGACTATTTTCACCTATAACGGAGTCACCTAGTGCAG | 8650 fluorescence intensity (a.u.)
17 | TTGTGGTTGGTTGTATCGTGATCCTGAGTGTGAAAAAACACGGAGTCACCTAGTGCAG | 8050 fluorescence intensity (a.u.)
18 | GTGTGTATGACAGGTTGATGTGATAGAAAAGGACTAAAGTCGGAGTCACCTAGTGCAG | 8110 fluorescence intensity (a.u.)
19 | AGAGATAGATAGTTGAAATTGTTTTTTTTCTAGGGAGGGGCGGAGTCACCTAGTGCAG | 12600 fluorescence intensity (a.u.)
20 | GCATCGCCCCGCCCTGACCACTTCACCTGCCTCTCCATATCGGAGTCACCTAGTGCAG | 9780 fluorescence intensity (a.u.)
21 | AGTAGGTGTGTCCTTTACATTTGCTAGTCTCCACTTTCCGCGGAGTCACCTAGTGCAG | 11200 fluorescence intensity (a.u.)
22 | CTAACATTCCCTATGCGGAAACACACACATTCATGCACACCGGAGTCACCTAGTGCAG | 8860 fluorescence intensity (a.u.)
23 | GTCCTCGTTCTTTTGTGCTGGTGATTCCCAAACTGTTAAACGGAGTCACCTAGTGCAG | 8030 fluorescence intensity (a.u.)

2 entries from above, comma-delimited.
Row,Sequence,binding signal
9,ATCCTGATCAGATTCTGAACTCCTTTTCTCTCTGCGCCCACGGAGTCACCTAGTGCAG,8480 fluorescence intensity (a.u.)
10,TCTTATCCATTCGCGCCGTGTATTACTAAGTGATTGTTTACGGAGTCACCTAGTGCAG,8380 fluorescence intensity (a.u.)
